# Measured values taken from the supplement of paper PMC10994270.
# The other results are listed elsewhere or left out.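 The calls were made as follows: active = probability of classifying as wild-type above 0.505; inactive = 0.505 or below.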 Repeats are few or missing, and single values can be far off.
# Test system: SORL1-/- neural progenitor cells (hiPSC WTSIi004-B derived)
# Test: probability of classification as wild-type phenotype (neural network, relative to DMSO-treated WT vs SORL1-/- controls) (fraction); higher = more similar to wild-type morphology (phenotypic rescue)
# Conditions: 24 h
# [1] = 1000 nM, SORL1-/- sub-clone: WB8
structure (smiles),measurement,setting,value
O.O=P1(N(CCCl)CCCl)NCCCO1 (centres undefined) [Cyclophosphamide monohydrate],probability,"300 nM, SORL1-/- sub-clone: WB8",active: 0.991
NCC1(CC(=O)O)CCCCC1 [Gabapentin],probability,[1],active: 0.784
O=C(O)CCCc1ccc(N(CCCl)CCCl)cc1 [Chloroambucil],probability,[1],active: 0.999
CCC1=C[C@@H]2CN3CCc4c([nH]c5ccccc45)[C@@](C(=O)OC)(C2)[C@@H]13 [Catharanthine],probability,"1000 nM, SORL1-/- sub-clone: WC7",active: 0.648
